Data on two molecules can be found in patent US7718353B2, “Proteins, sensors, and methods of characterizing analytes using the same” (University of Maryland Baltimore County, priority 2003, dated 2010).

A short description of data set [1]: Frequency-domain intensity decay and modulation of Ru-GlnBP-Acr in glutamine. Conditions: for fAcr / fRu: fractional intensity.
Data set [2] is described as follows: Detection limits of GlnBP sensor (Signal/Noise=3). Conditions: for LDL/UDL / Lower Detection Limit (LDL) / Upper Detection Limit (UDL): dye acrylodan.

B1: Ru-GlnBP-Acr: S179C GlnBP labeled at the cysteine with acrylodan and at the N-terminal with ruthenium bis-(2,2′-bipyridyl)-1,10-phenanthroline-9-isothiocyanate (protein, UniProt P0AEQ3 23-248, looked up, variant S179C)
Glutamine-binding periplasmic …: ADKKLVVATDTAFVPFEFKQGDKYVGFDVDLWAAIAKELKLDYELKPMDFSGIIPALQTKNVDLALAGITITDERKKAIDFSDGYYKSGLLVMVKANNNDVKSVKDLDGKVVAVKSGTGSVDYAKANIKTKDLRQFPNIDNAYMELGTNRADAVLHDTPNILYFIKTAGNGQFKAVGDCLEAQQYGIAFPKGSDELRDKVNGALKTLRENGTYNEIYKKWFGTEPK
modifications: acrylodan; N-terminal ruthenium complex label
notes: S179C GlnBP labeled at the cysteine with acrylodan and at the N-terminal with ruthenium bis-(2,2′-bipyridyl)-1,10-phenanthroline-9-isothiocyanate
In the case of B1, the fAcr was 0.510 in data set [1] (glutamine 0.0 μM); 0.476 in data set [1] (glutamine 0.1 μM); 0.415 in data set [1] (glutamine 0.2 μM); 0.374 in data set [1] (glutamine 0.4 μM); 0.347 in data set [1] (glutamine 0.8 μM); 0.331 in data set [1] (glutamine 1.6 μM). Further, the fRu was 0.490 in data set [1] (glutamine 0.0 μM); 0.539 in data set [1] (glutamine 0.1 μM); 0.585 in data set [1] (glutamine 0.2 μM); 0.626 in data set [1] (glutamine 0.4 μM); 0.653 in data set [1] (glutamine 0.8 μM); 0.669 in data set [1] (glutamine 1.6 μM). Also, in data set [1] (practically the same with the binding of glutamine (0-1.6 μM)), the “lifetime of Ru” value is on record as “about 685 ns”.

B2: GlnBP-Acr: S179C variant of E. coli glutamine-binding protein labeled with acrylodan at cysteine 179 (protein, UniProt P0AEQ3 23-248, looked up, variant S179C)
Glutamine-binding periplasmic …: ADKKLVVATDTAFVPFEFKQGDKYVGFDVDLWAAIAKELKLDYELKPMDFSGIIPALQTKNVDLALAGITITDERKKAIDFSDGYYKSGLLVMVKANNNDVKSVKDLDGKVVAVKSGTGSVDYAKANIKTKDLRQFPNIDNAYMELGTNRADAVLHDTPNILYFIKTAGNGQFKAVGDCLEAQQYGIAFPKGSDELRDKVNGALKTLRENGTYNEIYKKWFGTEPK
modifications: acrylodan label at C179
B2: the “lower detection limit of GlnBP relative to that of GBP (times lower)” value in data set [2] (comparison of Table 5 values) is recorded as “about 10 times”. In data set [2] (protein conc. 0.87 μM), the LDL/UDL is 107, the “Lower Detection Limit (LDL)” value worked out at 0.03 µM and the “Upper Detection Limit (UDL)” value turned out to be 3.2 µM. In addition, in data set [2] (protein conc. 3.54 μM), the LDL/UDL came out at 229, the “Lower Detection Limit (LDL)” value was 0.07 µM and the “Upper Detection Limit (UDL)” value was 16 µM. Moreover, the lower detection limit in data set [2] (range over protein conc. 0.87-3.54 μM (Table 5)) was 0.03 to 0.07 µM.
